Experimental data from PMC9134915.
Results are given in words; binding and its absence hold for the method and conditions named. In cells and extracts the contact can be indirect. Some results given as binding are weak or reduced against the parent protein; the word gives no strength.

Sequences of proteins named here, by UniProt entry; tags and fusion partners are left off.
UniProt P04899: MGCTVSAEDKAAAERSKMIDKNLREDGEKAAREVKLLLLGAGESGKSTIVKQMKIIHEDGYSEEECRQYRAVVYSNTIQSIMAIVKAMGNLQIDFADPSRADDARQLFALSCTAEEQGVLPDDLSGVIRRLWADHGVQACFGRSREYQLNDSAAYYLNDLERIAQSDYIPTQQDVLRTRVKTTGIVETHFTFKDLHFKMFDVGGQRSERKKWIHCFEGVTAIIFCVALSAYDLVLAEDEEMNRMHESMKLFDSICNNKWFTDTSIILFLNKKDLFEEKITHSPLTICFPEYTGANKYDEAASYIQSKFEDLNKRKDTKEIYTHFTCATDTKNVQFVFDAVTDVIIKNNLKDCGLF
UniProt P08754: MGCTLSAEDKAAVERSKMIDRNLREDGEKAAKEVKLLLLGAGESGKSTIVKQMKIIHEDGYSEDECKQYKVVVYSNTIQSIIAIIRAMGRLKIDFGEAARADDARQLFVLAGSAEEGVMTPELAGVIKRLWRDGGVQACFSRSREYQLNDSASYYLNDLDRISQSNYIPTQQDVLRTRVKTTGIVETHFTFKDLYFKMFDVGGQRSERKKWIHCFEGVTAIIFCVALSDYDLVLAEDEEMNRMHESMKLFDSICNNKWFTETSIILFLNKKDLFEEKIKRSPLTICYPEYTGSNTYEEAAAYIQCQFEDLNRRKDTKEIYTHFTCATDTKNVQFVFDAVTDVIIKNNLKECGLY

Biological target: T1, angiotensin II type 2 receptor (AGTR2), overexpressed from pCMV6-AGTR2 (human) (UniProt P50052)
T1 sequence: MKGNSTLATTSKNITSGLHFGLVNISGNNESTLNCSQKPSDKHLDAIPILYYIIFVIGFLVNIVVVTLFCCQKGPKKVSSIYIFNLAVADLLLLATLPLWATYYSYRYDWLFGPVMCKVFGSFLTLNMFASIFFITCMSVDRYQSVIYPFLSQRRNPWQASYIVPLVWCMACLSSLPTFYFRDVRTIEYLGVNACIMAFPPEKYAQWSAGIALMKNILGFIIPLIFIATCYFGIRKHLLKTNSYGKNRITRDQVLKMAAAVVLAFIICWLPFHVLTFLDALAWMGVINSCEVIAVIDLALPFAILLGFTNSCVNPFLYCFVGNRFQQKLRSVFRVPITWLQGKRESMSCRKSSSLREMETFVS
Assay: co-IP; HEK293 cells transfected with AGTR2, Gαi-2/Gαi-3 and hsa-let-7a-2 or control plasmids for 24 h; extract precipitated with anti-AGTR2 antibody (or IgG) and protein A/G agarose at 4 °C; Gαi-2/Gαi-3 detected by western blot

binding | Substance
binds | Gαi-2 (from UniProt P04899 1-355)
binds | Gαi-3 (from UniProt P08754 1-354)
